{
  "source": "patent US20110038920A1",
  "about": "“WOUND HEALING COMPOSITIONS AND TREATMENTS” (priority 2008, published 2011)",
  "tested_on": "OPN expression in Swiss 3T3 fibroblasts exposed to macrophage CM",
  "experiment": "Macrophage-CM induction of OPN in fibroblasts with inhibitors (Western blot)",
  "assay_type": "cell-based",
  "settings": "co-treatment; Gleevec 2-20 μM, PDGF-Rβ nAb 2 μg/ml, wortmannin 100 nM",
  "procedure": "Protein samples (20 μg; collected in T-PER® Reagent; PIERCE Biotechnology) were separated on Tris-Glycine Gels (Invitrogen), transferred to PVDF, and blotted according to standard protocols (antibody details are provided above).\nSwiss 3T3, J774.1 macrophages, and RBL mast cells were cultured in DMEM+10% fetal calf serum. Primary neutrophils were harvested by peritoneal lavage 4 h post-thioglycollate-induced peritonitis, and primary macrophages were derived from mouse bone marrow and activated with LPS (500 ng/ml).",
  "note": "At least one compound was matched to its structure with a doubt left.",
  "data": [
    {"smiles": "COC[C@H]1OC(=O)c2coc3c2[C@@]1(C)C1=C(C3=O)[C@@H]2CCC(=O)[C@@]2(C)C[C@H]1OC(C)=O", "note": "[wortmannin]", "values": [
      {"measurement": "OPN expression during fibroblast exposure to macrophage CM", "result": "blocked"}
    ]}
  ]
}
